Among all 53,000 sequences or so, about 3,700 (7%) were called active.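 Rule for the calls: active = gene knockdowns whose robust z-score for IL-1 alpha signal is at least 2 or at most -2, so actives lie on both sides; inactive = the rest.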 This is one part of the list.

Experimental findings from PubChem BioAssay AID1508600 (Functional Genomics Laboratory (NCATS/FGL), 2020) are described below.

This assay in a line: Components of the Cytosolic LPS Sensing Pathway: Gene Identification via Genome-wide siRNA Screen.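 Note: robust z of the log signal after scaling to non-targeting control siRNA wells of the plate.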 The conditions noted are these: RAW264.7 macrophages, IL-1a HTRF, actives lie on both sides, screened at 100 nM (by protocol), cells primed 5 h with Pam3CSK4 first. The gist of the method:
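Mouse macrophage line RAW264.7 is transfected with siRNA (100 nM final), grown 48h, primed with TLR ligand Pam3CSK4 5 h and given intracellular LipidA 24 h. IL-1a in supernatant is read by HTRF and viability by luminescence.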
For the sequence GGCUGUUUGUGGUAUAGGUTT against Lrrc3, the z-score was inactive: -1.05.

GGUAUGUAACGGUAUUUAATT against Gja1: the z-score was active: 2.66.

Turning to GGGAAUCGGCCUGAAGAAATT against Arl6ip5, the z-score is inactive: -0.404.

As to GCUUUACCUCCUAUUAAUATT against Rgs9bp, the z-score is inactive: -0.91.

For the sequence GCUGUCAAACUGCCUCAACTT against Prss58, the z-score is inactive: -0.798.

As for “GGUUCUCCAAGGAAAGAGGTT against 2310002L09Rik”, the z-score was active: 2.8.

Regarding CCCAAAUCGUAGCUGAUGATT against Cadps, the z-score is inactive: 0.449.

For GCAGUUCCCAUAGUUUUCUTT against Il1r2, the z-score is active: 6.07.

Consider GGAUCUGAUCCAGACUUCUTT against Ndrg1, for which the z-score was active: 2.05.

Turning to “GGUGAAGACAGAAUUUCCGTT against 1700128F08Rik”, the z-score is inactive: -1.01.

As for CCCAGUGAUUAAGGCUUUCTT against Slc25a38, the z-score is inactive: 1.27.

For GGAGAAAAAGUCUGAAAGATT against Helq, the z-score was inactive: -0.265.

On to GGAGGUAGAAUGUUAUGUGTT against Gjd2, for which the z-score is inactive: 0.0864.

CCAGUACAGAUGUGUUAAATT against N4bp2l2: the z-score was inactive: 1.68.

GGUGUUUAUCGACAGGUACTT against Myo15: the z-score was inactive: 0.126.

With GGGAACUCCUUAUGAAUGGTT against Stau2, the z-score was inactive: -0.597.

Turning to GGUGCAGUUGAACUUCUACTT against Dnajc1, the z-score was active: 2.26.

For the sequence GCAGUUGUCAUGCUAAACCTT against Ptpn2, the z-score was active: 2.89.

Turning to GCUACACUAUUCUAGCAAATT against Cryzl1, the z-score is inactive: 0.339.

With CCUUAUUAGUGGAUCUAAATT against Steap3, the z-score was inactive: 0.835.

On to GGCCAGAAGAUUCCUAAAGTT against Gulp1, for which the z-score is active: 3.38.

As for GGAAGACAUCUGAAACGAUTT against Eef1akmt1, the z-score is inactive: 0.769.

Regarding GGCUGCACCUGAAUUCCAATT against Lrrn1, the z-score is inactive: -0.342.

Turning to GGAGAAAAGUACCAAGAUGTT against Ifi27l2b, the z-score was inactive: -1.15.

Consider GCCGAUCAAGACAACUUCATT against Spaca7, for which the z-score is inactive: 0.0187.

With GGCCUUGGAAAUGAUAAGUTT against Scrn3, the z-score was inactive: -1.73.

Take GGCCUGUGCACACUUCUGUTT against Edn3: the z-score is inactive: 0.235.

As for CCUUGUACCCAGUAAAGUCTT against Mab21l4, the z-score is inactive: 0.586.

For CUACGUGCUAGCUCAAGGATT against Mmp28, the z-score is inactive: -1.1.

On to GGCCAAAGAAGAAAUCCAATT against Pop4, for which the z-score is inactive: 1.

Turning to GGGUUUCAUUAAAUUUCCUTT against Cyp2g1, the z-score was active: -2.06.

Take GUCAUCAAUCAAGUCUUGATT against Olfr1408: the z-score was inactive: -0.0822.

GGCAAAUACAGGCUAAAGUTT against Caps2: the z-score is inactive: 1.06.

Consider CCAAUGGAACAUUAAGUGATT against Psma1, for which the z-score is inactive: -0.485.

Regarding GGUGCUUUCUGCUUACUGATT against Ephb2, the z-score was inactive: -0.787.

In the case of GGAGCCAACAACAACUCCUTT against Rbfox2, the z-score was inactive: 0.0956.

As for CGUGUAUUUUACAAAGAGUTT against Gm11541, the z-score was inactive: 0.348.

With CCUGGCAUUUGGAGCAUUCTT against Olfr1154, the z-score was inactive: 0.234.

As for GCAUUACAAAUUGUCUACATT against Ugdh, the z-score was inactive: -0.175.

For GCGGAAGUAUUACCAAGACTT against Fam166c, the z-score is inactive: -0.908.

With GCUAUUCCGGAAUAAGAGUTT against Nell1, the z-score is inactive: 0.0447.

With GGAAGUGUUUGUUCUAAUCTT against Prr18, the z-score is inactive: 0.834.

Take GCAACUCAACCUCAACCAUTT against Lrrc8e: the z-score was inactive: -0.597.

Regarding GGAAGGAAAACCUUUCAACTT against Cyp2j6, the z-score is inactive: 0.975.

As for GGAAUAUGCCAAAAUGAAATT against Nuf2, the z-score is inactive: 0.139.

As to GGCCUUGGUGAAAAUGCAGTT against Plaat1, the z-score is active: -2.07.

Consider GGCUACAGGGAACAUAGAGTT against Pdzk1ip1, for which the z-score was inactive: 1.88.

As to CCGAAAAUGGUAAAUAACUTT against Rnf17, the z-score is inactive: 0.111.

Take “CCAGUGAUAACUCUCUUGUTT against A830039N20Rik”: the z-score was inactive: 1.23.

Consider GGUGCUUGUUUAAAUGGUUTT against Slc19a1, for which the z-score is inactive: -0.569.

Turning to CCAAGGACACUAUACAAAUTT against Fank1, the z-score was inactive: 0.957.

Consider GCACAGUACUAUCUCGGCATT against Ttc4, for which the z-score was inactive: 0.386.

As for GGAAAGAGUUCAACAGGGATT against Gimap4, the z-score was inactive: -0.853.

Turning to GCUUAGUGACCAUCUCCGUTT against Epop, the z-score was inactive: 0.236.

As to GGUCUCUUGGUGAUUUCCATT against Phyhipl, the z-score is inactive: 0.482.

As to GCCAGAGUACCACAUUAGUTT against Pcdhga4, the z-score was inactive: 0.921.

With GGAAAAGAAACACAUCUGGTT against Col2a1, the z-score was inactive: -0.68.

GGAAAAGAAAAUCGAGACCTT against Ubap2l: the z-score is inactive: 0.776.

Regarding GGAGCUGUUUGACAGUUUUTT against Nin, the z-score was inactive: 1.95.

Take GGCAGUUCUUUGUAUUAAATT against Dhcr7: the z-score is inactive: 0.223.

With GCCUCCUAGUAUUUACAUGTT against Ube2j2, the z-score is inactive: 0.8.

With GGCAGAAUGUUGUAAAUGATT against Man2b1, the z-score is inactive: -0.0977.

Regarding CGAUGACUGUAAAAAGUCUTT against Plcb1, the z-score was inactive: 0.541.

For GGACCAUGUGACAAAGCCUTT against Fam131b, the z-score is active: 2.16.

On to CGAUGACCUUGAAUAAAAATT against Vim, for which the z-score is inactive: -0.706.

For the sequence CCUCAAGGAACUGAAUGCCTT against Olfr1320, the z-score was inactive: 0.0261.

Take CCUAGUCACAAAUUCAGGATT against Skida1: the z-score is inactive: -0.0157.

For the sequence GGGCAAAAUGUGGAGAUGUTT against Vstm2a, the z-score was inactive: -0.116.

“GCUCUGCUGUGUUAUAUGGTT against C330011M18Rik”: the z-score was inactive: 0.144.

For the sequence CGGGACUUUAGAUUAUGAATT against Pcdha11, the z-score is inactive: -0.284.

With CGGGAAUCUAAAUAUGGUGTT against Oat, the z-score was inactive: -1.47.

GGAGCAUGAGGACAUCAGATT against Tnp1: the z-score is inactive: -0.444.

Regarding CGUGGUGCAGAAUUUUUAUTT against Cldn14, the z-score is inactive: 1.13.

With GGAAAAGGAGGAGGAAGGCTT against Lpin1, the z-score was inactive: -1.84.

Take GGAGAUCUUGAGAUUGUAUTT against Ticrr: the z-score was inactive: 0.424.

For the sequence GGAUGUAGAACUCUUAGCUTT against Wdr25, the z-score is inactive: 1.23.

On to CGAGCAUUCACCGUACGUATT against Id4, for which the z-score is inactive: 0.0542.

Regarding GGUUUUGGAAAAUUUGCUATT against Hal, the z-score is inactive: 0.349.

Turning to GGUAGAAAAUUGUCUUUUCTT against Zcchc7, the z-score was inactive: 1.58.

Take GCACUAUAAUUCUCAUUACTT against Omd: the z-score was inactive: -0.123.

Turning to GGAUCAUUCCAUUUCUGCCTT against Sh3pxd2b, the z-score is inactive: 0.505.

As for GCCGAGUUGAAGUGAAGAATT against Pold2, the z-score is inactive: -0.653.

Turning to CCUUGUUCGUCGCUGAGUUTT against Acer3, the z-score is inactive: 1.08.

Consider GCAUUAUGACUCUAAUAGCTT against Olfr60, for which the z-score is inactive: -0.919.

For the sequence GCAACAAUGUAUGCGUAUATT against Mrpl27, the z-score was inactive: 1.96.

GGCAGUUUGACAACUUUAATT against Fibp: the z-score was inactive: -0.653.

With GGAACAAGCCAGGCACAUATT against Prl2c5, the z-score was inactive: 0.389.

Regarding GGGCAAGAAUAAAUGAAAGTT against Hes1, the z-score was inactive: 1.63.

Consider GGCCAUCAGAUUGGUGAAATT against Ccl17, for which the z-score is inactive: -0.0075.

Consider GGACCCAGCAUUGGACUUGTT against Zranb1, for which the z-score is inactive: -1.36.

Regarding GGAGACAGAGGAAAUUCAGTT against Apoa5, the z-score is inactive: 1.04.

In the case of GCCCUCAUCAAUUCAACCCTT against Cyp2ab1, the z-score is inactive: -1.55.

With GGACUCAAGCAAACUCCAGTT against Stx12, the z-score was inactive: -1.05.

As to GAGAUGCAUUGUUUCAGGUTT against Vmn1r208, the z-score was inactive: 0.341.

Regarding GCAAAUCCCAGCUCAAUGUTT against Zfp810, the z-score is inactive: -1.65.

For GGCAGUUAGUAAGUUUAAATT against Eif5a2, the z-score was inactive: 1.22.

CCGAUUUUUACUUUUAGCUTT against Slc16a7: the z-score was inactive: 1.86.

Regarding “GGGCUCCUUAUGGAGGAUATT against A630091E08Rik”, the z-score is inactive: -0.688.

Regarding GGAGAGGUGGAAAUCUCUATT against Rasgef1c, the z-score is inactive: 0.202.

As to GGAUGAGAGAAAGUUACCCTT against Tspo2, the z-score is active: -2.78.

In the case of GCAUUCAGAAAUUGAGGGUTT against Sin3b, the z-score is inactive: -0.0974.

Turning to GCUGAAUUCGAAGAACAAUTT against Bpifb2, the z-score was inactive: 1.91.

In the case of GCCCAAACAUUCUUCGACUTT against Ubl3, the z-score is inactive: -1.62.

Regarding GGGCAUCUUGUAUAUCUGGTT against Spata33, the z-score is inactive: 0.363.

As to GGGUCACAGAGGUUACCCATT against Col2a1, the z-score was inactive: 1.25.

Consider CCAUUGAAUCAGUUGAAGUTT against Slc5a7, for which the z-score was inactive: 1.21.

For the sequence GGGUGAAGAUUCUCUACAATT against Dctn3, the z-score was inactive: -0.621.
